# Source: the supplement of paper PMC8728848
# Some of the results follow.
# Assays:
# Test in all cases: glycan array binding signal (z-score within array); higher = stronger binding
# Settings in all cases: glycan notation: IUPAC condensed, linker removed
# [1] = target: Gal(b1-3)GlcNAc(b1-2)Man(a1-3)[Gal(b1-3)GlcNAc(b1-2)Man(a1-6)]Man(b1-4)GlcNAc(b1-4)GlcNAc
# In short: (§1)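 The Consortium for Functional Glycomics database supplied 3228 glycan arrays, of which those lacking an available protein sequence were dropped. The binding signal, a within-array Z-score, was averaged across arrays of the same protein sequence and across linkers. Negative scores can be read as non-binding.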
# [2] = target: Gal(b1-3)GlcNAc(b1-2)Man(a1-3)[Gal(b1-3)GlcNAc(b1-2)Man(a1-6)]Man(b1-4)GlcNAc(b1-4)[Fuc(a1-6)]GlcNAc
# In short: as §1
# [3] = target: Gal(b1-3)GlcNAc(b1-2)Man(a1-3)[GlcNAc(b1-4)][Gal(b1-3)GlcNAc(b1-2)Man(a1-6)]Man(b1-4)GlcNAc(b1-4)GlcNAc
# In short: as §1
# [4] = target: Gal(b1-3)GlcNAc(b1-2)[Gal(b1-3)GlcNAc(b1-6)]Man(a1-6)[Gal(b1-3)GlcNAc(b1-2)Man(a1-3)]Man(b1-4)GlcNAc(b1-4)GlcNAc
# In short: as §1
# [5] = target: Gal(b1-3)GlcNAc(b1-3)Gal(b1-3)GlcNAc
# In short: as §1
# [6] = target: Gal(b1-3)GlcNAc(b1-3)Gal(b1-4)Glc
# In short: as §1
# [7] = target: Gal(b1-3)GlcNAc(b1-3)Gal(b1-4)GlcNAc
# In short: as §1
# [8] = target: Gal(b1-3)GlcNAc(b1-3)Gal(b1-4)GlcNAc(b1-2)Man(a1-3)[Gal(b1-3)GlcNAc(b1-3)Gal(b1-4)GlcNAc(b1-2)Man(a1-6)]Man(b1-4)GlcNAc(b1-4)GlcNAc
# In short: as §1
# [9] = target: Gal(b1-3)GlcNAc(b1-3)Gal(b1-4)GlcNAc(b1-2)[Gal(b1-3)GlcNAc(b1-3)Gal(b1-4)GlcNAc(b1-6)]Man(a1-6)[Gal(b1-3)GlcNAc(b1-3)Gal(b1-4)GlcNAc(b1-2)Man(a1-3)]Man(b1-4)GlcNAc(b1-4)[Fuc(a1-6)]GlcNAc
# In short: as §1
# [10] = target: Gal(b1-3)GlcNAc(b1-3)Gal(b1-4)GlcNAc(b1-3)Gal(b1-4)GlcNAc(b1-2)[Gal(b1-3)GlcNAc(b1-3)Gal(b1-4)GlcNAc(b1-3)Gal(b1-4)GlcNAc(b1-6)]Man(a1-6)[Gal(b1-3)GlcNAc(b1-3)Gal(b1-4)GlcNAc(b1-3)Gal(b1-4)GlcNAc(b1-2)Man(a1-3)]Man(b1-4)GlcNAc(b1-4)[Fuc(a1-6)]GlcNAc
# In short: as §1
# [11] = target: Gal(b1-3)GlcNAc(b1-3)Gal(b1-4)GlcNAc(b1-6)[Gal(b1-3)GlcNAc(b1-3)]Gal(b1-4)Glc
# In short: as §1
# [12] = target: Gal(b1-3)GlcNAc(b1-3)Gal(b1-4)[Fuc(a1-3)]GlcNAc
# In short: as §1
# [13] = target: Gal(b1-3)GlcNAc(b1-3)Gal(b1-4)[Fuc(a1-3)]GlcNAc(b1-6)[Gal(b1-3)GlcNAc(b1-3)]Gal(b1-4)Glc
# In short: as §1
# [14] = target: Gal(b1-3)GlcNAc(b1-3)GalNAc
# In short: as §1
# [15] = target: Gal(b1-3)GlcNAc(b1-6)Gal(b1-4)GlcNAc
# In short: as §1
# [16] = target: Gal(b1-3)GlcNAc(b1-6)GalNAc
# In short: as §1
# [17] = target: Gal(b1-3)GlcNAc(b1-6)[Gal(b1-3)]GalNAc
# In short: as §1
# [18] = target: Gal(b1-3)GlcNAc6S
# In short: as §1
# [19] = target: Gal(b1-3)[Fuc(a1-4)]GlcNAc
# In short: as §1
# [20] = target: Gal(b1-3)[Fuc(a1-4)]GlcNAc(b1-2)Man
# In short: as §1
# [21] = target: Gal(b1-3)[Fuc(a1-4)]GlcNAc(b1-2)Man(a1-3)[Gal(b1-3)[Fuc(a1-4)]GlcNAc(b1-2)Man(a1-6)]Man(b1-4)GlcNAc(b1-4)[Fuc(a1-6)]GlcNAc
# In short: as §1
# [22] = target: Gal(b1-3)[Fuc(a1-4)]GlcNAc(b1-3)Gal(b1-3)[Fuc(a1-4)]GlcNAc
# In short: as §1
# [23] = target: Gal(b1-3)[Fuc(a1-4)]GlcNAc(b1-3)Gal(b1-4)[Fuc(a1-3)]GlcNAc
# In short: as §1
# [24] = target: Gal(b1-3)[Fuc(a1-4)]GlcNAc(b1-6)GalNAc
# In short: as §1
# [25] = target: Gal(b1-3)[GlcNAc(b1-6)]GalNAc
# In short: as §1
# [26] = target: Gal(b1-3)[Neu5Ac(a2-6)]GalNAc
# In short: as §1
# [27] = target: Gal(b1-3)[Neu5Ac(a2-6)]GlcNAc(b1-4)Gal(b1-4)Glc
# In short: as §1
# [28] = target: Gal(b1-3)[Neu5Ac(b2-6)]GalNAc
# In short: as §1
# [29] = target: Gal(b1-4)Gal
# In short: as §1
# [30] = target: Gal(b1-4)GalNAc(a1-3)[Fuc(a1-2)]Gal(b1-4)GlcNAc
# In short: as §1
# [31] = target: Gal(b1-4)GalNAc(b1-3)[Fuc(a1-2)]Gal(b1-4)GlcNAc
# In short: as §1
# [32] = target: Gal(b1-4)Glc
# In short: as §1
# [33] = target: Gal(b1-4)Glc6S
# In short: as §1
# [34] = target: Gal(b1-4)GlcNAc
# In short: as §1
# [35] = target: Gal(b1-4)GlcNAc(a1-6)Gal(b1-4)GlcNAc
# In short: as §1
# [36] = target: Gal(b1-4)GlcNAc(b1-2)Man
# In short: as §1
# [37] = target: Gal(b1-4)GlcNAc(b1-2)Man(a1-3)Man(b1-4)GlcNAc(b1-4)GlcNAc
# In short: as §1
# [38] = target: Gal(b1-4)GlcNAc(b1-2)Man(a1-3)[Gal(b1-4)GlcNAc(b1-2)Man(a1-6)]Man(b1-4)GlcNAc(b1-4)GlcNAc
# In short: as §1
# [39] = target: Gal(b1-4)GlcNAc(b1-2)Man(a1-3)[Gal(b1-4)GlcNAc(b1-2)Man(a1-6)]Man(b1-4)GlcNAc(b1-4)[Fuc(a1-6)]GlcNAc
# In short: as §1
# [40] = target: Gal(b1-4)GlcNAc(b1-2)Man(a1-3)[Gal(b1-4)GlcNAc(b1-2)Man(a1-6)][Gal(b1-4)GlcNAc(b1-4)]Man(b1-4)GlcNAc(b1-4)[Fuc(a1-6)]GlcNAc
# In short: as §1
# [41] = target: Gal(b1-4)GlcNAc(b1-2)Man(a1-3)[Gal(b1-4)GlcNAc(b1-2)Man(a1-6)][GlcNAc(b1-4)]Man(b1-4)GlcNAc(b1-4)[Fuc(a1-6)]GlcNAc
# In short: as §1
# [42] = target: Gal(b1-4)GlcNAc(b1-2)Man(a1-3)[GlcNAc(b1-2)Man(a1-6)]Man(b1-4)GlcNAc(b1-4)GlcNAc
# In short: as §1
# [43] = target: Gal(b1-4)GlcNAc(b1-2)Man(a1-3)[GlcNAc(b1-4)][Gal(b1-4)GlcNAc(b1-2)Man(a1-6)]Man(b1-4)GlcNAc(b1-4)GlcNAc
# In short: as §1
# [44] = target: Gal(b1-4)GlcNAc(b1-2)Man(a1-3)[Man(a1-6)]Man(b1-4)GlcNAc(b1-4)GlcNAc
# In short: as §1
# [45] = target: Gal(b1-4)GlcNAc(b1-2)Man(a1-6)Man(b1-4)GlcNAc(b1-4)GlcNAc
# In short: as §1
binder,measurement,setting,value
"DCIR1 (Mus musculus), Q9QZ15 (protein) MASEITYAEVKFKNESNSLHTYSESPAAPREKPIRDLRKPGSPSLLLTSLMLLLLLLAITFLVAFIIYFQKYSQLLEEKKAAKNIMHNELNCTKSVSPMEDKVWSCCPKDWRLFGSHCYLVPTVSSSASWNKSEENCSRMGAHLVVIQSQEEQDFITGILDTHAAYFIGLWDTGHRQWQWVDQTPYEESITFWHNGEPSSGNEKCATIIYRWKTGWGWNDISCSLKQKSVCQMKKINL",glycan array binding signal (z-score),[1],-0.338
same,glycan array binding signal (z-score),[2],-0.797
same,glycan array binding signal (z-score),[3],0.064
same,glycan array binding signal (z-score),[4],-0.321
same,glycan array binding signal (z-score),[5],-0.535
same,glycan array binding signal (z-score),[6],-0.532
same,glycan array binding signal (z-score),[7],0.016
same,glycan array binding signal (z-score),[8],0.377
same,glycan array binding signal (z-score),[9],-0.063
same,glycan array binding signal (z-score),[10],2.45
same,glycan array binding signal (z-score),[11],0.051
same,glycan array binding signal (z-score),[12],-0.671
same,glycan array binding signal (z-score),[13],-0.632
same,glycan array binding signal (z-score),[14],-0.841
same,glycan array binding signal (z-score),[15],0.002
same,glycan array binding signal (z-score),[16],-0.327
same,glycan array binding signal (z-score),[17],1.56
same,glycan array binding signal (z-score),[18],-0.285
same,glycan array binding signal (z-score),[19],-0.069
same,glycan array binding signal (z-score),[20],0.967
same,glycan array binding signal (z-score),[21],1.47
same,glycan array binding signal (z-score),[22],-0.789
same,glycan array binding signal (z-score),[23],-0.398
same,glycan array binding signal (z-score),[24],-0.284
same,glycan array binding signal (z-score),[25],-0.805
same,glycan array binding signal (z-score),[26],-0.767
same,glycan array binding signal (z-score),[27],3.38
same,glycan array binding signal (z-score),[28],-0.696
same,glycan array binding signal (z-score),[29],-0.246
same,glycan array binding signal (z-score),[30],-0.718
same,glycan array binding signal (z-score),[31],-0.625
same,glycan array binding signal (z-score),[32],-0.029
same,glycan array binding signal (z-score),[33],1.36
same,glycan array binding signal (z-score),[34],-0.206
same,glycan array binding signal (z-score),[35],-0.525
same,glycan array binding signal (z-score),[36],0.987
same,glycan array binding signal (z-score),[37],-0.673
same,glycan array binding signal (z-score),[38],-0.217
same,glycan array binding signal (z-score),[39],-0.636
same,glycan array binding signal (z-score),[40],-0.267
same,glycan array binding signal (z-score),[41],-0.61
same,glycan array binding signal (z-score),[42],0.278
same,glycan array binding signal (z-score),[43],-0.363
same,glycan array binding signal (z-score),[44],0.951
same,glycan array binding signal (z-score),[45],-0.064

# Reformatted: entries from further up.
binder | measurement | setting | value
DCIR1 (Mus musculus), Q9QZ15 (protein) MASEITYAEVKFKNESNSLHTYSESPAAPREKPIRDLRKPGSPSLLLTSLMLLLLLLAITFLVAFIIYFQKYSQLLEEKKAAKNIMHNELNCTKSVSPMEDKVWSCCPKDWRLFGSHCYLVPTVSSSASWNKSEENCSRMGAHLVVIQSQEEQDFITGILDTHAAYFIGLWDTGHRQWQWVDQTPYEESITFWHNGEPSSGNEKCATIIYRWKTGWGWNDISCSLKQKSVCQMKKINL | glycan array binding signal (z-score) | [20] | 0.967
same | glycan array binding signal (z-score) | [23] | -0.398
